Source: US20080032896A1, “Methods for identifying compounds that bind to a target” (priority 1995, published 2008)
Some results were stated once for a whole list of compounds, not compound by compound.

Tested on: anti-FGF monoclonal antibody
Assay: FGF binding assay: inhibition of radiolabeled FGF binding to biotinylated anti-FGF antibody
Set-up: species or system mouse
Conditions: FIG. 1
Procedure: FIG. 1 is a graph depicting the ability of compounds PPI-432, PPI-652 and PPI-654 to inhibit the binding of radiolabeled FGF to an anti-FGF antibody.
The activities of the libraries were tested using an FGF binding assay. […] Since Libraries I and II are highly diverse, the active non-peptide compounds should have a spectrum of potencies which cumulatively yield the average potency seen in the library.
The eluted non-peptide compounds were brought to dryness under vacuum. Recovered non-peptide compounds were dissolved in 50 μl water and tested for their ability to block the interaction of bFGF with the target protein. (Assuming 100% recovery of non-peptide compounds and 100% binding to bivalent antibody, the amount of recovered non-peptide compounds was calculated to be 200 ng).
Several of the non-peptide compounds selected from the combinatorial library were made synthetically and compared to the starting peptide (PPI-432) for their ability to bind to the target protein. The compounds were synthesized with an amino-terminal acetyl group and a carboxy-terminal amide. The potency of two non-peptide compounds (PPI-652 and PPI-654, shown in Table 2), containing modified amino acids at positions 5 and 7, were compared to the starting peptide PPI-432 in their ability to inhibit radiolabeled FGF binding to biotinylated anti-FGF antibody. […]

Substance: Pro-Pro-Gly-His-Nal-Lys-Nal [PPI-652]
- binding affinity / potency for target binding, fold higher than the starting peptide PPI-432: 10-100 fold

Substance: Pro-Pro-Gly-His-Nal-Lys-D-pF-Phe [PPI-654]
- binding affinity / potency for target binding, fold higher than the starting peptide PPI-432: 10-100 fold
